Experimental data reported in PMC12037035.
Results are given in words; binding and its absence hold for the method and conditions named. In cells and extracts the contact can be indirect. These calls come from enrichment with a bait or labelling near it, and not all partners need be listed. One block for each binder: values may come before it.

Biological target: T1, CD20 (MS4A1), endogenous in BJAB B cells (human (endogenous in BJAB)) (UniProt P11836)
T1 sequence: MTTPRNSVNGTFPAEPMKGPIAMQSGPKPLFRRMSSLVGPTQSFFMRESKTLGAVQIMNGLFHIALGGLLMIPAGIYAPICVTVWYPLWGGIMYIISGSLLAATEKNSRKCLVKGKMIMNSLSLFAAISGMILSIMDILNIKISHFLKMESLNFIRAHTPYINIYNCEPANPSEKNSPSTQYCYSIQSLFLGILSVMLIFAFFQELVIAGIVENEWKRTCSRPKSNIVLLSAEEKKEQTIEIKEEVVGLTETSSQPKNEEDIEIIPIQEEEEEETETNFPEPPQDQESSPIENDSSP
Assay: affinity purification with mass spectrometry; IP of endogenous CD20 from BJAB lysates (1% Brij97 or 1% digitonin, 10 mM Tris-HCl pH 7.5, 150 mM NaCl, 2 mM MgCl2, 2 mM CaCl2) with anti-human CD20 antibody and Protein G Dynabeads, 4 °C; IgG2a isotype control; LC-MS/MS, iBAQ

- binding: binds
B1: tetraspanin CD37, endogenous in BJAB B cells (protein, UniProt P11049 1-281)
chain: MSAQESCLSLIKYFLFVFNLFFFVLGSLIFCFGIWILIDKTSFVSFVGLAFVPLQIWSKVLAISGIFTMGIALLGCVGALKELRCLLGLYFGMLLLLFATQITLGILISTQRAQLERSLRDVVEKTIQKYGTNPEETAAEESWDYVQFQLRCCGWHYPQDWFQVLILRGNGSEAHRVPCSCYNLSATNDSTILDKVILPQLSRLGHLARSRHSADICAVPAESHIYREGCAQGLQKWLHNNLISIVGICLGVGLLELGFMTLSIFLCRNLDHVYNRLARYR

- binding: binds
B2: CD70, endogenous in BJAB B cells (protein, UniProt P32970 1-193)
chain: MPEEGSGCSVRRRPYGCVLRAALVPLVAGLVICLVVCIQRFAQAQQQLPLESLGWDVAELQLNHTGPQQDPRLYWQGGPALGRSFLHGPELDKGQLRIHRDGIYMVHIQVTLAICSSTTASRHHPTTLAVGICSPASRSISLLRLSFHQGCTIASQRLTPLARGDTLCTNLTGTLLPSRNTDETFFGVQWVRP
